PubChem BioAssay AID1224828, NIAID, 2016
Here is a random part of about 17,000 reagents. 762 of them (4.5%) were called active. 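Active calls include both raised and lowered p65 entry, mostly lowered; wells with fewer than 50 cells lack a z-score.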 The raw values are shown without normalisation.

- Purpose: 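Regulators linking TLR4 signalling to p65 nuclear translocation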 (primary screen)
- Cells: mouse RAW264.7 G9 macrophage reporter cells (GFP-p65, Tnf promoter-mCherry)
- Knock-down reagent: siRNA pool against mouse genes, 100 nM
- Time to read-out: 2 days siRNA transfection, then 40 min LPS before fixation
- Conditions: LPS (Salmonella minnesota R595) at 10 ng/ml
- Measurement: 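Microscopy ratio of nuclear to perinuclear-ring GFP-p65 signal, scaled to the plate median; gene score is the average of two replicate robust z-scores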
- Scale: p65 translocation robust z-score: higher = more nuclear NF-kappaB p65 after LPS than the plate median; nuclear/cytoplasmic p65 ratio: higher = more nuclear NF-kappaB p65
- Active means: 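Active if robust z is above 3.3 (negative regulators) or below -1.56, the Tlr4 control median (positive regulators); activity score 50 or more; control wells not called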
- Meaning of the calls: active = hit (p65 shift raised or lowered); inactive = no clear change

Upk2 (uroplakin 2) → nuclear/cytoplasmic p65 ratio, rep 1: 1.38; nuclear/cytoplasmic p65 ratio, rep 2: 1.21; low cell count flag: fewer than 50 cells per well; well left out of scoring; call: inactive
Or5h22 (olfactory receptor family 5 subfamily H member 22) → p65 translocation robust z-score: 0.4; nuclear/cytoplasmic p65 ratio, rep 1: 1.67; nuclear/cytoplasmic p65 ratio, rep 2: 1.13; low cell count flag: enough cells to score; call: inactive
Spint1 (serine protease inhibitor, Kunitz type 1) → p65 translocation robust z-score: -0.73; nuclear/cytoplasmic p65 ratio, rep 1: 1.29; nuclear/cytoplasmic p65 ratio, rep 2: 1.17; low cell count flag: enough cells to score; call: inactive
Or4c122 (olfactory receptor family 4 subfamily C member 122) → p65 translocation robust z-score: 0.51; nuclear/cytoplasmic p65 ratio, rep 1: 1.8; nuclear/cytoplasmic p65 ratio, rep 2: 1.6; low cell count flag: enough cells to score; call: inactive
Map10 (microtubule-associated protein 10) → p65 translocation robust z-score: -0.22; nuclear/cytoplasmic p65 ratio, rep 1: 1.22; nuclear/cytoplasmic p65 ratio, rep 2: 1.3; low cell count flag: enough cells to score; call: inactive
Dlgap3 (DLG associated protein 3) → p65 translocation robust z-score: -1.5; nuclear/cytoplasmic p65 ratio, rep 1: 1.23; nuclear/cytoplasmic p65 ratio, rep 2: 1.26; low cell count flag: enough cells to score; call: inactive
Cenpt (centromere protein T) → p65 translocation robust z-score: -0.4; nuclear/cytoplasmic p65 ratio, rep 1: 1.49; nuclear/cytoplasmic p65 ratio, rep 2: 1.45; low cell count flag: enough cells to score; call: inactive
Defb14 (defensin beta 14) → p65 translocation robust z-score: -0.19; nuclear/cytoplasmic p65 ratio, rep 1: 1.54; nuclear/cytoplasmic p65 ratio, rep 2: 1.53; low cell count flag: enough cells to score; call: inactive
Pcdhb18 (protocadherin beta 18) → p65 translocation robust z-score: -0.43; nuclear/cytoplasmic p65 ratio, rep 1: 1.42; nuclear/cytoplasmic p65 ratio, rep 2: 1.33; low cell count flag: enough cells to score; call: inactive

The list goes on, starting with the last 3 of the part before.
Cenpt (centromere protein T) → p65 translocation robust z-score: -0.4; nuclear/cytoplasmic p65 ratio, rep 1: 1.49; nuclear/cytoplasmic p65 ratio, rep 2: 1.45; low cell count flag: enough cells to score; call: inactive
Defb14 (defensin beta 14) → p65 translocation robust z-score: -0.19; nuclear/cytoplasmic p65 ratio, rep 1: 1.54; nuclear/cytoplasmic p65 ratio, rep 2: 1.53; low cell count flag: enough cells to score; call: inactive
Pcdhb18 (protocadherin beta 18) → p65 translocation robust z-score: -0.43; nuclear/cytoplasmic p65 ratio, rep 1: 1.42; nuclear/cytoplasmic p65 ratio, rep 2: 1.33; low cell count flag: enough cells to score; call: inactive
Or8g55 (olfactory receptor family 8 subfamily G member 55) → p65 translocation robust z-score: -0.2; nuclear/cytoplasmic p65 ratio, rep 1: 1.5; nuclear/cytoplasmic p65 ratio, rep 2: 1.15; low cell count flag: enough cells to score; call: inactive
Orc4 (origin recognition complex, subunit 4) → p65 translocation robust z-score: 0.09; nuclear/cytoplasmic p65 ratio, rep 1: 1.44; nuclear/cytoplasmic p65 ratio, rep 2: 1.27; low cell count flag: enough cells to score; call: inactive
Dbil5 (diazepam binding inhibitor-like 5) → p65 translocation robust z-score: -1.32; nuclear/cytoplasmic p65 ratio, rep 1: 1.41; nuclear/cytoplasmic p65 ratio, rep 2: 1.33; low cell count flag: enough cells to score; call: inactive
Esyt3 (extended synaptotagmin-like protein 3) → p65 translocation robust z-score: 0.07; nuclear/cytoplasmic p65 ratio, rep 1: 1.54; nuclear/cytoplasmic p65 ratio, rep 2: 1.6; low cell count flag: enough cells to score; call: inactive
Fyb1 (FYN binding protein 1) → p65 translocation robust z-score: 0.05; nuclear/cytoplasmic p65 ratio, rep 1: 1.8; nuclear/cytoplasmic p65 ratio, rep 2: 1.31; low cell count flag: enough cells to score; call: inactive
Josd2 (Josephin domain containing 2) → p65 translocation robust z-score: -0.35; nuclear/cytoplasmic p65 ratio, rep 1: 1.39; nuclear/cytoplasmic p65 ratio, rep 2: 1.5; low cell count flag: enough cells to score; call: inactive
H2ac25 (H2A clustered histone 25) → nuclear/cytoplasmic p65 ratio, rep 1: 1.31; nuclear/cytoplasmic p65 ratio, rep 2: 1.14; low cell count flag: fewer than 50 cells per well; well left out of scoring; call: inactive
Pdcd6 (programmed cell death 6) → p65 translocation robust z-score: -0.86; nuclear/cytoplasmic p65 ratio, rep 1: 1.34; nuclear/cytoplasmic p65 ratio, rep 2: 1.29; low cell count flag: enough cells to score; call: inactive
Slc26a10 → p65 translocation robust z-score: 1.72; nuclear/cytoplasmic p65 ratio, rep 1: 1.82; nuclear/cytoplasmic p65 ratio, rep 2: 2.09; low cell count flag: enough cells to score; call: inactive
Shroom1 (shroom family member 1) → nuclear/cytoplasmic p65 ratio, rep 1: 1.56; nuclear/cytoplasmic p65 ratio, rep 2: 1.49; low cell count flag: fewer than 50 cells per well; well left out of scoring; call: inactive
Mrps25 (mitochondrial ribosomal protein S25) → p65 translocation robust z-score: 2.06; nuclear/cytoplasmic p65 ratio, rep 1: 2.16; nuclear/cytoplasmic p65 ratio, rep 2: 1.86; low cell count flag: enough cells to score; call: inactive
Sparcl1 (SPARC-like 1) → p65 translocation robust z-score: -1.6; nuclear/cytoplasmic p65 ratio, rep 1: 1.38; nuclear/cytoplasmic p65 ratio, rep 2: 1.27; low cell count flag: enough cells to score; call: active
Ormdl3 (ORM1-like 3 (S. cerevisiae)) → p65 translocation robust z-score: 0.7; nuclear/cytoplasmic p65 ratio, rep 1: 1.56; nuclear/cytoplasmic p65 ratio, rep 2: 1.3; low cell count flag: enough cells to score; call: inactive
Hdac7 (histone deacetylase 7) → p65 translocation robust z-score: -1.68; nuclear/cytoplasmic p65 ratio, rep 1: 1.19; nuclear/cytoplasmic p65 ratio, rep 2: 1.18; low cell count flag: enough cells to score; call: active
Or1ad6 (olfactory receptor family 1 subfamily AD member 6) → nuclear/cytoplasmic p65 ratio, rep 1: 1.43; nuclear/cytoplasmic p65 ratio, rep 2: 0.857; low cell count flag: fewer than 50 cells per well; well left out of scoring; call: inactive
Cct8 (chaperonin containing TCP1 subunit 8) → p65 translocation robust z-score: -0.28; nuclear/cytoplasmic p65 ratio, rep 1: 1.36; nuclear/cytoplasmic p65 ratio, rep 2: 1.34; low cell count flag: enough cells to score; call: inactive
Rnase4 (ribonuclease, RNase A family 4) → p65 translocation robust z-score: 0.64; nuclear/cytoplasmic p65 ratio, rep 1: 1.29; nuclear/cytoplasmic p65 ratio, rep 2: 1.29; low cell count flag: enough cells to score; call: inactive
Fh1 (fumarate hydratase 1) → p65 translocation robust z-score: -0.12; nuclear/cytoplasmic p65 ratio, rep 1: 1.36; nuclear/cytoplasmic p65 ratio, rep 2: 1.41; low cell count flag: enough cells to score; call: inactive
